Binding data for one substance are collected here from paper PMC8938454.

No constants are given. Whether binding was seen depends on the method and setting. Binding seen in cells or lysates may run through a third protein. A result given as binding can be weak or reduced; the word gives no strength.

For experiment [1], the target named is T1, JIP4/SPAG9 scaffolding protein, endogenous in HEK293T (human (endogenous in HEK293T)) (UniProt O60271).
T1 sequence: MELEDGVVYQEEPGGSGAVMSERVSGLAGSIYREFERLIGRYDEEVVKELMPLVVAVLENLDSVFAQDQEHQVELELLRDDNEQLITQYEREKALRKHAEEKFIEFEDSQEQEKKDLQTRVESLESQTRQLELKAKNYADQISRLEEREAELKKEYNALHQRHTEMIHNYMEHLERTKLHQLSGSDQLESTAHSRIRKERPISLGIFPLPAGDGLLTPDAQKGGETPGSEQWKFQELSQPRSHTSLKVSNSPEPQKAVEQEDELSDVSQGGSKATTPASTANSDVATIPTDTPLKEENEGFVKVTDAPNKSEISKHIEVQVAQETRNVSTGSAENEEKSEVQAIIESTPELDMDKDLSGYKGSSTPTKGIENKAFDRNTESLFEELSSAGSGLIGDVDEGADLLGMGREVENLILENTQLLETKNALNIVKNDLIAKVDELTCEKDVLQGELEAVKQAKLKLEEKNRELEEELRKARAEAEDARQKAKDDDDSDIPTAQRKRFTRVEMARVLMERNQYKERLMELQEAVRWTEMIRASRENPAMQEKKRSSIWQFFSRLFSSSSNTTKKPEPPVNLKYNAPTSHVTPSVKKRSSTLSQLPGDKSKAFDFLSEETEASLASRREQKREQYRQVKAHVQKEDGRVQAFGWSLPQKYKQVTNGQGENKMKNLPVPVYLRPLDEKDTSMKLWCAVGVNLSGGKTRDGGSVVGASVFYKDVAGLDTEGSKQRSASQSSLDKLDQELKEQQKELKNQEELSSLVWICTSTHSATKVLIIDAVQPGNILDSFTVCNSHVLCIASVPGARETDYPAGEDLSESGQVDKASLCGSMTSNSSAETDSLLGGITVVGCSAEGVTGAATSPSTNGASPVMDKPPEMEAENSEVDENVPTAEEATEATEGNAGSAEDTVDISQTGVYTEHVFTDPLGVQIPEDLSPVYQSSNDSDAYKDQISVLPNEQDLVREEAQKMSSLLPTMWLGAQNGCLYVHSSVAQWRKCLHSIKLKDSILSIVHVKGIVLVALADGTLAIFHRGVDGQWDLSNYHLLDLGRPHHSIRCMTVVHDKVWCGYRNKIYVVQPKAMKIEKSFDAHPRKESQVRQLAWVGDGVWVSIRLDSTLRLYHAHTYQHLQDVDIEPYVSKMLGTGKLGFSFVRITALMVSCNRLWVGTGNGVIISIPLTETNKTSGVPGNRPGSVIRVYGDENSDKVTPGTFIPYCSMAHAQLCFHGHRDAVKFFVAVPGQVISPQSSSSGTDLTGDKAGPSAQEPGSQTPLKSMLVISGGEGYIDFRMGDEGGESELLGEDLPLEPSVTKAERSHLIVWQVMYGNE
Put plainly: co-IP; endogenous IP from HEK293T cell lysates with antibody-conjugated resin (anti-Arl8, anti-RUFY3 or anti-JIP4; mouse IgG resin as control); in Fig. 5l cells treated with control or RUFY3 siRNA.

Experiment [2] addresses T2, RUFY3, endogenous in HEK293T (human (endogenous in HEK293T)) (UniProt Q7L099).
T2 sequence: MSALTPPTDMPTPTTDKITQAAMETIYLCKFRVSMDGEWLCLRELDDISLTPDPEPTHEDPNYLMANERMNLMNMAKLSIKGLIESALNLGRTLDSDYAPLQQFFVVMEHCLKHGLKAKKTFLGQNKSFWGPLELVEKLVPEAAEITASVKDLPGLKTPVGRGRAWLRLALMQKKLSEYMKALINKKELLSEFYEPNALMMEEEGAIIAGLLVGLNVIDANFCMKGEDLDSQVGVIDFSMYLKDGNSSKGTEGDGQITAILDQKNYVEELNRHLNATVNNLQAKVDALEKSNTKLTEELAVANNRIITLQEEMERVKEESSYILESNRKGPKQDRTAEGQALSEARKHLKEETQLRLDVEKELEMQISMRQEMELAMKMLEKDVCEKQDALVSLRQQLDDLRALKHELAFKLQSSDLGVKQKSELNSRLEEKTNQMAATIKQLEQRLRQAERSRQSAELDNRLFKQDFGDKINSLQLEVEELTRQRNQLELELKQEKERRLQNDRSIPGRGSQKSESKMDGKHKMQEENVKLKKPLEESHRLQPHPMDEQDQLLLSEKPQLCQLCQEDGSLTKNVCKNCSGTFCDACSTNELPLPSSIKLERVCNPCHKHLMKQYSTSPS
The description is as above.

Regarding “dynein intermediate chain (DIC), endogenous in HEK293T (human (endogenous in HEK293T))”, the binding result in experiment [1] and in experiment [2] was “binds” each time.
